Hit rate of the full screen: of about 340,000 compounds, about 170 (0.05%) were called active. The inconclusive results got no clear call from the source; some entries with a clear call stand among them for comparison. Calls come from the whole dose curve; as a rule, active = well fitted inhibition curve with a large enough effect in the signal ratio, with a control signal flat (not every such curve was filed as active); inconclusive = small, poorly fitted or top-dose-only effect, or effect the other way, or a change in a side signal; inactive = flat fitted curve, though single readings scatter; the % refers to the signal ratio. A potency beside an inconclusive call is a rough fit, not a confirmed value.
Assay: qHTS Assay to Find Inhibitors of Chronic Active B-Cell Receptor Signaling;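 for activity change, negative = inhibition: plate controls were basal doxycycline-induced cells for no effect and cells given 10 µM MG132 for full effect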
Settings: ABC-DLBCL IkBa-CBG/CBR reporter, luminescence ratio (green luciferase fused to IkBa over red control in TMD8 lymphoma cells), 4 h; activity change, negative = inhibition: at 46.1 µM (top of the series)
Procedure, shortened: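 Doxycycline induced both beetle luciferases in TMD8 lymphoma cells; IKK-driven degradation limits the IkappaBalpha-fused green signal, while red luminescence normalises for cell number and nonspecific effects. Compounds tested up to 46 uM, 4 hrs.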
Potency is the fitted concentration of half-maximal effect.

Compound | Potency | activity change, negative = inhibition
COc1cccc(C(=O)Nc2cccnc2)c1 | inconclusive: 0.058 µM [falling, full curve, poor fit] | –
O=[N+]([O-])c1ccc(N(c2ccccc2)c2ccccc2)cc1 | inconclusive: 6.31 µM [rising, partial curve, poor fit] | –
CCOC(=O)c1c(CSc2ccccc2)n(C)c2ccc(O)c(CN3CCOCC3)c12 | – | inconclusive: -15.4%
CSCCOC(=O)C1=C(C)NC(=O)NC1c1ccc2c(c1)OCO2 (configuration not stated) | – | inconclusive: -0.704%
CC(=O)c1ccc(N2CCN(C(=O)/C=C/c3ccc(S(=O)(=O)NCc4ccco4)cc3)CC2)cc1 | – | inconclusive: -0.796%
COc1ccccc1NC(=S)N/N=C1\CC(C)(C)Oc2ccc(O)cc21 | inconclusive: 3.55 µM [cytotoxic, single point] | –
COc1ccc(C2CC(c3ccncc3)=NN2c2ccc(S(N)(=O)=O)cc2)cc1 (configuration not stated) | inconclusive: 18.4 µM [falling, single point] | –
CN(C)c1ccc(C(CC(=O)O)C(=O)O)cc1 (configuration not stated) | inconclusive: 2.82 µM [rising, full curve, poor fit] | –
CCS(=O)(=O)Nc1ccc(C2=NN(C(C)=O)C(c3cccs3)C2)cc1 (configuration not stated) | inconclusive: 7.08 µM [falling, full curve, poor fit] | –
CSc1nc(NCC(C)C)c2c3c(sc2n1)CN(C)CC3 | – | inactive: -9.76%
FC(F)(F)c1cnc(Oc2ccc(-c3nnco3)cc2)c(Cl)c1 | – | inactive: 2.96%
CCC1S/C(=C(\C#N)C(=O)NCc2ccco2)N(c2ccc(F)cc2)C1=O (configuration not stated) | – | inconclusive: -0.0379%
C/C(=N\Nc1nc(N)cc(Cl)n1)c1ccc(F)cc1 | – | inconclusive: -12.3%
Cc1ccc2c(CC(=O)NNC(=O)c3ccccc3O)coc2c1 | inconclusive: 18.4 µM [falling, single point] | –
O=C(NNc1cc(N2CCOCC2)nc(N2CCOCC2)n1)C12CC3CC(CC(C3)C1)C2 | – | inconclusive: 0.963%
COc1cc(C(=O)OCc2cc(=O)n3ccsc3n2)ccc1OC(C)C | – | inconclusive: -0.304%
Cc1ccc(C2=NN(C(=O)c3cccs3)C(c3ccccc3O)C2)cc1 (configuration not stated) | – | inconclusive: -2.25%
Cc1cccc(NC(=O)C[n+]2cccc(C)c2)c1 | – | inactive: -1.8%
CCOC(=O)c1cnn(-c2cccc(Cl)c2)c1N | – | inconclusive: -26%
COc1ccc(OC)c(Nc2ncnc3c2cnn3-c2cccc(C)c2)c1 | – | inconclusive: -0.723%
CN(Cc1ccccc1N1CCCC1)C(=O)c1cc2ccccc2o1 | – | inconclusive: -0.185%
Cc1ccc(SCC(=O)Nc2ccc(N3CCN(C)CC3)c(F)c2)cc1 | – | inconclusive: -13.5%
CNC(=S)N/N=C(\C)c1ccc(-n2ccnc2)cc1 | inconclusive: 2.06 µM [falling, partial curve, poor fit] | –
CCC(=NCCc1c(C)[nH]c2ccc(C)cc12)C1=C(O)CC(c2ccccc2)CC1=O (configuration not stated) | inconclusive: 20.6 µM [falling, partial curve] | –
O=C(CCCNC(=O)/C(=C/c1ccc(Br)cc1)NC(=O)c1ccccc1)OCc1ccccc1 | – | inconclusive: 14.2%
O=C(Nc1ccc(C(=O)Oc2ccccc2)c(O)c1)c1ccccc1 | – | inconclusive: 6.49%

Entries of single compounds as entered above.
`CSc1nc(NCC(C)C)c2c3c(sc2n1)CN(C)CC3` is entered as activity change, negative = inhibition: inactive: -9.76%
`COc1cccc(C(=O)Nc2cccnc2)c1` is entered as Potency: inconclusive: 0.058 µM [falling, full curve, poor fit]
`CCOC(=O)c1cnn(-c2cccc(Cl)c2)c1N` is entered as activity change, negative = inhibition: inconclusive: -26%
`Cc1ccc(C2=NN(C(=O)c3cccs3)C(c3ccccc3O)C2)cc1` (configuration not stated) is entered as activity change, negative = inhibition: inconclusive: -2.25%

More entries:

Compound | Potency | activity change, negative = inhibition
CCc1ccc(NC(=S)N2CCN(c3cccc(C(F)(F)F)c3)CC2)cc1 | – | inconclusive: -25.7%
COCCN(C(=O)c1ccco1)c1nnc(-c2ccc(OC)c(OC)c2)s1 | – | inactive: 6.17%
CSc1ccc(/C=N/NC(=O)c2cc(O)cc(O)c2)cc1 | inconclusive: 23.1 µM [falling, partial curve] | –
CC(NC(=S)Nc1ccccc1Cl)C(c1cccs1)N1CCCC1 (configuration not stated) | – | inactive: 0.216%
Cc1cc(OCC(O)CN2C(C)CCCC2C)ccc1C(C)C (configuration not stated) | inconclusive: 28.2 µM [falling, single point] | –
CCC12CN3CC(CC)(CN(C1)C3c1c[nH]c3ccccc13)C2=O (configuration not stated) | – | inactive: 13.7%
Cc1cccc(OCC(=O)Nc2ccc3c(c2)OCCO3)c1 | – | inconclusive: -28.4%
N=C(N)SCc1ccc(Cl)cc1Cl | inconclusive: 18.4 µM [falling, single point] | –
COc1ccc(C2Nc3ccccc3C(=O)N2Cc2ccccc2)cc1CSc1ccccn1 (configuration not stated) | – | inactive: -0.934%
CNc1c(NC(=O)c2ccc3c(c2)OCO3)c(=O)oc2ccccc12 | inconclusive: 12.6 µM [falling, partial curve] | –
COc1ccc(/C=C(\C#N)C(=O)NCc2ccccc2)cc1O | – | inconclusive: -13.8%
Brc1ccc(NC(c2ccccc2)c2ccncc2)cc1 (configuration not stated) | – | inconclusive: 3.8%
COCCCNC(=O)C1CCN(Cc2cc3ccccc3n2Cc2cccc(Cl)c2)CC1 | – | inconclusive: -25.7%
Cc1cccc(OCC2=NS(=O)(=O)c3ccccc3N2)c1 | – | inconclusive: -13%
CCOC(=O)c1nc(NCc2ccccc2)sc1C | inconclusive: 11.2 µM [falling, single point] | –
Cc1ccc(S(=O)(=O)Nc2ccc(Br)cc2/C=N/n2cnnc2)cc1 | – | inconclusive: 10.7%
Cc1cc(NC(=O)CCc2ccc(S(=O)(=O)N3CCOCC3)cc2)n(-c2ccccc2)n1 | – | inactive: 8.48%
Nc1nc(N2CCN(c3ccccn3)CC2)nc2ccccc12 | – | inconclusive: 0.255%
COc1cccc(C(=O)NNC(=O)c2cccc(F)c2)c1 | inconclusive: 14.1 µM [falling, single point] | –
CC(=O)Nc1cccc(OCCCOc2ccc([N+](=O)[O-])cc2)c1 | – | inconclusive: 4.63%
COc1ccccc1CNCC(c1ccccc1)c1ccccc1 | – | inconclusive: 0.953%
O=C(CN1CCN(CC(=O)Nc2ccccc2Cl)CC1)NCC1(N2CCOCC2)CCCCC1 | – | inactive: 1.43%
Clc1cccc(Cl)c1-c1noc(-c2ccno2)n1 | – | inconclusive: 5.09%
CCOC(=O)c1cccc(NC(=O)c2ccc(N(C)C)cc2)c1 | inconclusive: 13 µM [falling, partial curve] | –
O=C(Cn1c2c(c(-c3ccccc3Cl)cc1=O)CCC2)NCC1CCCO1 (configuration not stated) | – | inconclusive: 2.72%
COC(=O)c1c(NC(=O)CSc2nc3ccccc3c(=O)n2Cc2ccco2)sc(C)c1C | – | inconclusive: -18.8%

Reference: PubChem BioAssay AID493014 (National Center for Advancing Translational Sciences (NCATS), 2011)
